1 compound from patent publication US11278547B2 (Strongbridge Dublin Limited, priority 2019, dated 2022) can be followed below.

Read-outs that look alike come from different tables or passages of the source.

The mark [1] stands for this setting: Period 1: metformin 500 mg single oral dose alone.
Setting [2] is: Period 3: metformin 500 mg co-administered with levoketoconazole 600 mg Q12H.

On to `CN(C)C(=N)NC(=N)N.Cl` [metformin, N,N-dimethylimidodicarbonimidic diamide hydrochloride], for which, under setting [1], the “Cl/F, Geometric Mean” value came to 82.2 L/h and the “Cl/F, Median” value was found to be 79.7 L/h. Besides, under setting [2], the “Cl/F, Geometric Mean” value is 35.7 L/h and the “Cl/F, Median” value is recorded as 33.1 L/h.
